Among the data in publication doi:10.1101/808311 are binding values, retold here.

The chains behind the UniProt entries cited, without tags or fusion partners. Where a name states a change or a piece, a line headed by the entry shows the natural chain unless it says otherwise.
UniProt Q96B77: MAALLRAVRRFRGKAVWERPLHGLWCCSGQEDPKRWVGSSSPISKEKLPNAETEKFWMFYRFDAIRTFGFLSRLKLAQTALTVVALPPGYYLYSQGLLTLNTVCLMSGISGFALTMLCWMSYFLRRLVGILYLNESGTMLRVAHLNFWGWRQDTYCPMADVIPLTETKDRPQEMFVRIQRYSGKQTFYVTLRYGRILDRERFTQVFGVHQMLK
UniProt O95298: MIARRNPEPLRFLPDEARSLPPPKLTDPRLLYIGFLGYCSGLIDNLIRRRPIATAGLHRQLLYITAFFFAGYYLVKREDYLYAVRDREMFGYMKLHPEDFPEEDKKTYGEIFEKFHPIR

Read-outs that look alike come from different tables or passages of the source. These are yes or no findings as the source states them, for the method shown. Binding seen in cells or lysates may run through a third protein. Here binding means that the protein was enriched with, or labelled near, the bait; the list need not be complete. For some of these results: Sequences can lack the tags named with a protein.

The target in test [1] is T1, COA1 with a C-terminal Flag tag (human) (UniProt Q9GZY4).
T1 sequence: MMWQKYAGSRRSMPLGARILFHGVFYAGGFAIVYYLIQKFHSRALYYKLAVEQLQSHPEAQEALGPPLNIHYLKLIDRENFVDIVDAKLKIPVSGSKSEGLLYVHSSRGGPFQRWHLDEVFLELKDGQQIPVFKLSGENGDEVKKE
In words: affinity purification with mass spectrometry.

Test [2] deals with NDUFAF1 fused to the promiscuous biotin ligase BirA* (human) (UniProt Q9Y375). The test can be described thus: proximity labelling.
The target in test [3] is T1, COA1 with a C-terminal Flag tag (human). In words: affinity purification with mass spectrometry. The source holds these as a separate data set.
For test [4], the target named is TMEM186 with a C-terminal Flag epitope (human) (UniProt Q96B77). In words: affinity purification with mass spectrometry.
The target is the same in test [5]. The test can be described thus: affinity purification with mass spectrometry. The source holds these as a separate data set.
Test [6] addresses T2, NDUFAF1 fused to the promiscuous biotin ligase BirA* (human), Q9Y375.
T2 chain: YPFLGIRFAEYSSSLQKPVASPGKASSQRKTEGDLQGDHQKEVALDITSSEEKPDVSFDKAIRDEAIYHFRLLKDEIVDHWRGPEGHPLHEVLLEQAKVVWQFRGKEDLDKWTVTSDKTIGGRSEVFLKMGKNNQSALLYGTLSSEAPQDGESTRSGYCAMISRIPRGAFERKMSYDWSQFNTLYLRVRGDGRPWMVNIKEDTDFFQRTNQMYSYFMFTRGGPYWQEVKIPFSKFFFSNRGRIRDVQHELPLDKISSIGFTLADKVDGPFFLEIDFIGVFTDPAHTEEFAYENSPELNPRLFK
The test can be described thus: proximity labelling. Particulars: remark: other sources report otherwise.

Take “TMEM186 (endogenous, HEK293T-derived cells) (from UniProt Q96B77)”: the binding result in test [1] and in test [2] was “binds” each time.
Turning to “NDUFAF1 (endogenous, HEK293T-derived cells) (from UniProt Q9Y375 25-327)”, the binding result in test [1], in test [3], in test [4] and in test [5] was “binds” throughout.
Regarding “NDUFC2, complex I subunit of the ND2 module (from UniProt O95298 1-119)”, in test [1], the binding entry is recorded as “binds”.

B1: AGK (protein, UniProt Q53H12 1-422)
chain: MTVFFKTLRNHWKKTTAGLCLLTWGGHWLYGKHCDNLLRRAACQEAQVFGNQLIPPNAQVKKATVFLNPAACKGKARTLFEKNAAPILHLSGMDVTIVKTDYEGQAKKLLELMENTDVIIVAGGDGTLQEVVTGVLRRTDEATFSKIPIGFIPLGETSSLSHTLFAESGNKVQHITDATLAIVKGETVPLDVLQIKGEKEQPVFAMTGLRWGSFRDAGVKVSKYWYLGPLKIKAAHFFSTLKEWPQTHQASISYTGPTERPPNEPEETPVQRPSLYRRILRRLASYWAQPQDALSQEVSPEVWKDVQLSTIELSITTRNNQLDPTSKEDFLNICIEPDTISKGDFITIGSRKVRNPKLHVEGTECLQASQCTLLIPEGAGGSFSIDSEEYEAMPVEVKLLPRKLQFFCDPRKREQMLTSPTQ
Consider B1, for which the binding entry in test [4] was “binds”.

B2: ECSIT (endogenous, HEK293T-derived cells) (protein, UniProt Q9BQ95 49-431)
chain: SSEQSLVPSPPEPRQRPTKALVPFEDLFGQAPGGERDKASFLQTVQKFAEHSVRKRGHIDFIYLALRKMREYGVERDLAVYNQLLNIFPKEVFRPRNIIQRIFVHYPRQQECGIAVLEQMENHGVMPNKETEFLLIQIFGRKSYPMLKLVRLKLWFPRFMNVNPFPVPRDLPQDPVELAMFGLRHMEPDLSARVTIYQVPLPKDSTGAADPPQPHIVGIQSPDQQAALARHNPARPVFVEGPFSLWLRNKCVYYHILRADLLPPEEREVEETPEEWNLYYPMQLDLEYVRSGWDNYEFDINEVEEGPVFAMCMAGAHDQATMAKWIQGLQETNPTLAQIPVVFRLAGSTRELQTSSAGLEEPPLPEDHQEEDDNLQRQQQGQS
Regarding B2, the binding entry in test [1], in test [2], in test [3], in test [4] and in test [5] was “binds” each time.

B3: TIM22 (protein, UniProt Q9Y584 1-194)
chain: MAAAAPNAGGSAPETAGSAEAPLQYSLLLQYLVGDKRQPRLLEPGSLGGIPSPAKSEEQKMIEKAMESCAFKAALACVGGFVLGGAFGVFTAGIDTNVGFDPKDPYRTPTAKEVLKDMGQRGMSYAKNFAIVGAMFSCTECLIESYRGTSDWKNSVISGCITGGAIGFRAGLKAGAIGCGGFAAFSAAIDYYLR
With B3, the binding result in test [4] was “binds”.

B4: TIM29 (protein, UniProt Q9BSF4 32-260)
chain: GSWARALLRDYAEACRDASAEARARPGRAAVYVGLLGGAAACFTLAPSEGAFEEALLEASGTLLLLAPATRNRESEAFVQRLLWLRGRGRLRYVNLGLCSLVYEAPFDAQASLYQARCRYLQPRWTDFPGRVLDVGFVGRWWVLGAWMRDCDINDDEFLHLPAHLRVVGPQQLHSETNERLFDEKYKPVVLTDDQVDQALWEEQVLQKEKKDRLALSQAHSLVQAEAPR
B4: the binding entry in test [4] is reported as “binds”.

B5: TMEM126B (endogenous, HEK293T-derived cells) (protein, UniProt Q8IUX1 1-230)
chain: MVVFGYEAGTKPRDSGVVPVGTEEAPKVFKMAASMHGQPSPSLEDAKLRRPMVIEIIEKNFDYLRKEMTQNIYQMATFGTTAGFSGIFSNFLFRRCFKVKHDALKTYASLATLPFLSTVVTDKLFVIDALYSDNISKENCVFRSSLIGIVCGVFYPSSLAFTKNGRLATKYHTVPLPPKGRVLIHWMTLCQTQMKLMAIPLVFQIMFGILNGLYHYAVFEETLEKTIHEE
As for B5, the binding entry in test [2] and in test [4] was “binds” in each case.

B6: ACAD9 (endogenous, HEK293T-derived cells), Q9H845 38-621 (protein)
chain: AFAKELFLGKIKKKEVFPFPEVSQDELNEINQFLGPVEKFFTEEVDSRKIDQEGKIPDETLEKLKSLGLFGLQVPEEYGGLGFSNTMYSRLGEIISMDGSITVTLAAHQAIGLKGIILAGTEEQKAKYLPKLASGEHIAAFCLTEPASGSDAASIRSRATLSEDKKHYILNGSKVWITNGGLANIFTVFAKTEVVDSDGSVKDKITAFIVERDFGGVTNGKPEDKLGIRGSNTCEVHFENTKIPVENILGEVGDGFKVAMNILNSGRFSMGSVVAGLLKRLIEMTAEYACTRKQFNKRLSEFGLIQEKFALMAQKAYVMESMTYLTAGMLDQPGFPDCSIEAAMVKVFSSEAAWQCVSEALQILGGLGYTRDYPYERILRDTRILLIFEGTNEILRMYIALTGLQHAGRILTTRIHELKQAKVSTVMDTVGRRLRDSLGRTVDLGLTGNHGVVHPSLADSANKFEENTYCFGRTVETLLLRFGKTIMEEQLVLKRVANILINLYGMTAVLSRASRSIRIGLRNHDHEVLLANTFCVEAYLQNLFSLSQLDKYAPENLDEQIKKVSQQILEKRAYICAHPLDRTC
For B6, the binding entry in test [6] is “binds”.

B7: ACAD9 (endogenous, HEK293T-derived cells) (protein, UniProt Q9H845 38-621)
chain: B6 chain
For B7, the binding entry in test [1], in test [3], in test [4] and in test [5] was “binds” each time.
